From the supplement of paper PMC9233669
Variants at the floor of the assay are shown more often than the library holds them.

Key:
biotinyl-Ile-oxazolone = assay: self-aminoacylation, catalytic enhancement (BIO) (fold over background); higher = more active; k-Seq, kA / k0A0; sequences stand for … in GGGAAUGGAUCCACAUCUACGAAUUC…UUCACUGCAGACUUGACGAAGCUG
How it was run: (§1)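 Mutagenized RNA pools (0.43 μM; 21-nt variable region) were treated with 2–1250 μM of each biotinyl-aminoacyl-oxazolone. Conditions were 50 μL HEPES/NaCl/KCl/MgCl2/CaCl2 buffer, 5% acetonitrile, pH 6.9–7.0, room temperature, 90 minutes. Catalytic enhancement, the median kA relative to the uncatalyzed rate, was derived from streptavidin capture, qPCR and Illumina sequencing.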

biotinyl-Phe-oxazolone = assay: self-aminoacylation, catalytic enhancement (BFO) (fold over background); higher = more active; k-Seq, kA / k0A0; sequences stand for … in GGGAAUGGAUCCACAUCUACGAAUUC…UUCACUGCAGACUUGACGAAGCUG
How it was run: as §1

biotinyl-Met-oxazolone = assay: self-aminoacylation, catalytic enhancement (BMO) (fold over background); higher = more active; k-Seq, kA / k0A0; sequences stand for … in GGGAAUGGAUCCACAUCUACGAAUUC…UUCACUGCAGACUUGACGAAGCUG
How it was run: as §1

biotinyl-Val-oxazolone = assay: self-aminoacylation, catalytic enhancement (BVO) (fold over background); higher = more active; k-Seq, kA / k0A0; sequences stand for … in GGGAAUGGAUCCACAUCUACGAAUUC…UUCACUGCAGACUUGACGAAGCUG
How it was run: as §1

biotinyl-Trp-oxazolone = assay: self-aminoacylation, catalytic enhancement (BWO) (fold over background); higher = more active; k-Seq, kA / k0A0; sequences stand for … in GGGAAUGGAUCCACAUCUACGAAUUC…UUCACUGCAGACUUGACGAAGCUG
How it was run: as §1

biotinyl-Leu-oxazolone = assay: self-aminoacylation, catalytic enhancement (BLO) (fold over background); higher = more active; k-Seq, kA / k0A0; sequences stand for … in GGGAAUGGAUCCACAUCUACGAAUUC…UUCACUGCAGACUUGACGAAGCUG
How it was run: as §1

Row | Sequence | self-aminoacylation (biotinyl-Ile-oxazolone) | self-aminoacylation (biotinyl-Phe-oxazolone) | self-aminoacylation (biotinyl-Met-oxazolone) | self-aminoacylation (biotinyl-Val-oxazolone) | self-aminoacylation (biotinyl-Trp-oxazolone) | self-aminoacylation (biotinyl-Leu-oxazolone)
1 | CCACGCUUCAAGCAAUCUGUC [Fam1B.1 aminoacylation ribozyme variant] | 0.357 | 0.793 | 0.325 | 0.443 | 0.405 | 0.361
2 | CCACUCUUCAAACAAUCGGUC [Fam1B.1 aminoacylation ribozyme variant] | 1.23 | 78.3 | 1.44 | 1.3 | 41.8 | 2.04
3 | CCACUCUUCAAGCAAUCGGGC [Fam1B.1 aminoacylation ribozyme variant] | 1.9 | 1.38 | 1.72 | 1.87 | 1.69 | 2.21
4 | CCACUCUUGAAGCAAUCGGUC [Fam1B.1 aminoacylation ribozyme variant] | 0.986 | 1.01 | 0.973 | 1 | 0.852 | 0.97
5 | CCACUCUUUAAGCAAUCGGUC [Fam1B.1 aminoacylation ribozyme variant] | 0.915 | 0.92 | 0.816 | 1.09 | 0.723 | 0.894
6 | CCACUUCAAACAAUCGGUCAG [Fam1A.1 aminoacylation ribozyme variant] | 1.01 | 13.7 | 0.992 | 1.04 | 9.79 | 1.03
7 | CCACUUCAAACUAUCGGUCUG [Fam1A.1 aminoacylation ribozyme variant] | 1.44 | 0.866 | 1.39 | 1.46 | 1.39 | 1.16
8 | CCACUUCGAACAAUCGGUCUG [Fam1A.1 aminoacylation ribozyme variant] | 1.15 | 1.26 | 1.77 | 1.24 | 1.32 | 1.41
9 | CCAGAAUUCAAGCAAUCGGUC [Fam1B.1 aminoacylation ribozyme variant] | 1.91 | 2.26 | 1.65 | 1.6 | 1.81 | 2.3
10 | CCAGACUUAAAGCAAUCGGUC [Fam1B.1 aminoacylation ribozyme variant] | 1.06 | 0.854 | 0.997 | 1.07 | 0.831 | 1.1
11 | CCAGACUUCAAACAAUCGGUC [Fam1B.1 aminoacylation ribozyme variant] | 1.36 | 85.8 | 1.39 | 1.5 | 40.2 | 2.19
12 | CCAGACUUCAAGCAAUUGGUC [Fam1B.1 aminoacylation ribozyme variant] | 0.759 | 1.07 | 0.805 | 0.794 | 0.695 | 0.66
13 | CCAUACUCCAAGCAAUCGGUC [Fam1B.1 aminoacylation ribozyme variant] | 1.01 | 1.2 | 0.771 | 1.01 | 1.01 | 0.801
14 | CCAUACUUCAAGCAAUCGGAC [Fam1B.1 aminoacylation ribozyme variant] | 1.01 | 1.21 | 1.17 | 1.06 | 0.768 | 0.856
15 | CCAUACUUCAAGCAAUGGGUC [Fam1B.1 aminoacylation ribozyme variant] | 1.04 | 0.918 | 0.972 | 1 | 0.627 | 0.926
16 | CCAUACUUCAAGCAAUUGGUC [Fam1B.1 aminoacylation ribozyme variant] | 0.743 | 1.13 | 0.689 | 0.762 | 0.625 | 0.667
17 | CCAUACUUCAAGCCAUCGGUC [Fam1B.1 aminoacylation ribozyme variant] | 1.06 | 0.652 | 0.971 | 1.09 | 0.849 | 0.937
18 | CCAUACUUCACGCAAUCGGUC [Fam1B.1 aminoacylation ribozyme variant] | 1.07 | 0.83 | 0.872 | 1.34 | 0.912 | 1.07
19 | CCAUAGUUCAAGCAAUCGGUC [Fam1B.1 aminoacylation ribozyme variant] | 1.06 | 1.4 | 0.883 | 1.02 | 1.11 | 0.903
20 | CCCCACUGCAAGCAAUCGGUC [Fam1B.1 aminoacylation ribozyme variant] | 1.77 | 4.31 | 1.73 | 2.35 | 3.43 | 1.57
21 | CCGCACUUCAAGCAAUCCGUC [Fam1B.1 aminoacylation ribozyme variant] | 1.23 | 1.17 | 0.971 | 1.25 | 1.12 | 1.22
22 | CCGCACUUCAAGCAAUCUGUC [Fam1B.1 aminoacylation ribozyme variant] | 0.437 | 0.915 | 0.49 | 0.414 | 0.546 | 0.35
23 | CCGCACUUCAUGCAAUCGGUC [Fam1B.1 aminoacylation ribozyme variant] | 1.18 | 1.01 | 1.12 | 1.26 | 1.07 | 1.11
24 | CCUCACCUCAAGCAAUCGGUC [Fam1B.1 aminoacylation ribozyme variant] | 1.02 | 4.38 | 0.79 | 1.3 | 2.12 | 0.963
25 | CCUCACUUCAAGCAAGCGGUC [Fam1B.1 aminoacylation ribozyme variant] | 0.84 | 1.15 | 0.882 | 0.996 | 0.921 | 1.07
26 | CCUCACUUCAAGCUAUCGGUC [Fam1B.1 aminoacylation ribozyme variant] | 0.785 | 1.21 | 0.562 | 0.856 | 0.822 | 0.715
